Laboratory results from the supplement of paper PMC5949888.
Most values lie at the floor of the assay. Slopes are relative: functional sequences can read slightly below zero.

System: Saccharomyces cerevisiae PS128 hsf1 delta, HSF1(1-493) fusion
Assay: growth estimate (transactivation domain function in HSF1 fusion, heat-shock survival) (a.u. (slope of normalised read count over time)); higher = stronger growth at 37°C, i.e. more transactivation activity
Details: library: random library

Row | Substance | growth estimate
1 | GRFYQALLRTHILVWV | < -0.25
2 | LFRADLIIRQSLEAVKDRL | < -0.25
3 | FPWWNAVFSSAQTLRRYGGQ | < -0.25
4 | RKAWWWDVTQ | < -0.25
5 | CKK | < -0.25
6 | TNSPRNRTVDTENVRTQVLW | < -0.25
7 | YSRAGSFLTLYVVSI | < -0.25
8 | AYIRLRCLTVIMAQAQ | < -0.25
9 | RHQADLRFRTQGHGGHVRGT | -0.248
10 | GCDLNRGLTGFWYSTRAGIK | < -0.25
11 | LKHRKWQVEVSCICSRTRQQ | < -0.25
12 | SCVETQDPCRHKALIVVS | -0.248
13 | SQRRNVA | < -0.25
14 | HGLVVLRVPASDLRTCGDIA | < -0.25
15 | PLREPALFFLSDRLLPWVAR | < -0.25
16 | QYV | < -0.25
17 | VSH | < -0.253
18 | EPMTCG | < -0.25
19 | QFAERPVEIG | < -0.25
20 | GPSVGNSRGRVTHDDRSSML | < -0.25
21 | AGFLKQPVPASALVSHEHRL | < -0.25
22 | GEFSSIAFMLWREVVTGTAY | < -0.25
23 | NLSRSIEDRRHAIVSTG | < -0.25
24 | IRA | < -0.25
25 | SVQSTNDAGGFSGSGVSIGE | < -0.25
26 | TSRWILCSS | -0.25
27 | ITLMPEKDDS | < -0.25

Row | Substance | growth estimate
28 | QKSQANLKCRAYLLAAPISV | < -0.25
29 | RDDASSYLAQS | < -0.25
30 | ASKEPVERGQVACFPRELCH | < -0.25
31 | GHAGRLSGFSSTLSPDNRCY | < -0.25
32 | PNHTILYSAECRFWTTCSRD | < -0.25
33 | NALEPRLGPVGCGYNSVGHQ | < -0.25
34 | FPRSCKRGMSRFSAVRRFAC | < -0.25
35 | SQSNRWSKQASWRLGRRHRA | < -0.25
36 | YSQGESEQRNRQCSWLVP | < -0.25
37 | LEIFVKFGCGAYEAGLDVGS | < -0.25
38 | GDRLTEGTCL | < -0.25
39 | APASLR | < -0.25
40 | LTRSSFADKSVMLFISVFQP | < -0.25
41 | PRRVIGGHYAGGAASCATSR | < -0.25
42 | PSRINLLRGCKPITARFTEE | < -0.25
43 | YYPL | < -0.25
44 | NGRGWLITSLPINAASGSPG | < -0.25
45 | RLLLALLLAH | < -0.25
46 | LPMVGDVPPYLRGSAIQNSA | < -0.25
47 | CDHRMGRP | < -0.25
48 | RRPSQGSRGRRYC | < -0.25
49 | GYRAV | < -0.25
50 | NSEVLHDVASSCLGLATLGT | < -0.25
51 | ASHVCPTW | < -0.25
52 | PNIKDRARTSSMGTSTAMSN | < -0.25
53 | WDTTPVEKLGFFITYHGLYR | < -0.25
54 | DFVIKRTLVTMPGRLRRGGP | < -0.25

Looked up above:
growth estimate, PNIKDRARTSSMGTSTAMSN reads < -0.25
growth estimate, NSEVLHDVASSCLGLATLGT reads < -0.25

The results go on.

Row | Substance | growth estimate
55 | TACLLNSAGTWLGIIAGK | < -0.25
56 | RMIRCVNYGAPDSRGLAVHF | < -0.25
57 | SSCNA | < -0.25
58 | ARGDIGDPRVGRGCRVA | < -0.25
59 | DIGDSTHGIVTPD | < -0.25
60 | WFRWAMRCLFDVMFINSRGV | < -0.25
61 | KVYMVAARVRARR | < -0.25
62 | ALIIDN | < -0.25
63 | TKESRSAISVVKNIIFLLQG | < -0.25
64 | CLTNYSFSRIGSLKQKPAVR | < -0.25
65 | SHCVSYGPRTADLRPSQSFL | < -0.25
66 | IWRVAKVREVAYGYGPVLTA | < -0.25
67 | TVH | < -0.25
68 | ANSPYRCVGFCKHGNHILVV | < -0.25
69 | DSVDRCPSLWGTINLDRVHR | < -0.25
70 | NWGGSVGVPASVI | < -0.25
71 | IQQFPRGIFVGRVKMAARQL | < -0.25
72 | DGQAQG | < -0.25
73 | NYQVGIGFGIALIGQLNAGK | < -0.25
74 | RVPQVPFEDGLRGLR | < -0.25
75 | GSGRVARNNKDSDTRALVAS | < -0.25
76 | SDRDE | < -0.25
77 | REPGILLLRDLAGCTECVCL | < -0.25
78 | PKVSRRNVKAGTDQTAQVKL | < -0.25
79 | PGRPTRWQCEV | < -0.25

Part of the list above, comma-delimited:
Row,Substance,growth estimate
56,RMIRCVNYGAPDSRGLAVHF,< -0.25
57,SSCNA,< -0.25
58,ARGDIGDPRVGRGCRVA,< -0.25
59,DIGDSTHGIVTPD,< -0.25
60,WFRWAMRCLFDVMFINSRGV,< -0.25
61,KVYMVAARVRARR,< -0.25
62,ALIIDN,< -0.25
63,TKESRSAISVVKNIIFLLQG,< -0.25
64,CLTNYSFSRIGSLKQKPAVR,< -0.25
65,SHCVSYGPRTADLRPSQSFL,< -0.25
66,IWRVAKVREVAYGYGPVLTA,< -0.25
67,TVH,< -0.25
68,ANSPYRCVGFCKHGNHILVV,< -0.25
69,DSVDRCPSLWGTINLDRVHR,< -0.25
70,NWGGSVGVPASVI,< -0.25
71,IQQFPRGIFVGRVKMAARQL,< -0.25
72,DGQAQG,< -0.25
73,NYQVGIGFGIALIGQLNAGK,< -0.25
74,RVPQVPFEDGLRGLR,< -0.25
75,GSGRVARNNKDSDTRALVAS,< -0.25
76,SDRDE,< -0.25
77,REPGILLLRDLAGCTECVCL,< -0.25
78,PKVSRRNVKAGTDQTAQVKL,< -0.25
79,PGRPTRWQCEV,< -0.25
